These are yes or no findings as the source states them, for the method shown. Binding seen in cells or lysates may run through a third protein. Binding calls can cover weak binding; strength is not graded here. Sequences can lack the tags named with a protein.
Assays:
[1] = molecular target: SYCE2-TEX12 core, MBP fusion (human); experiment: pull-down; amylose pull-down after co-expression of MBP fusions (SYCE1, SYCE1-SIX6OS1, SYCE2-TEX12 core constructs) with His- or GST-SYCE3; lysis in 500 mM KCl, wash in 150 mM KCl, 4°C
[2] = molecular target: MBP-SIX6OS1N with SYCE1core (SYCE1-SIX6OS1 complex) (human); experiment: as above

- binding [1]: binds
- binding [2]: binds
B1: His-SYCE3 (full-length, amino-acids 1-88) (natural protein, human, UniProt A1L190 1-88, looked up)
chain: MDDADPEERNYDNMLKMLSDLNKDLEKLLEEMEKISVQATWMAYDMVVMRTNPTLAESMRRLEDAFVNCKEEMEKNWQELLHETKQRL
notes: SYCE3, full-length = amino-acids 1-88; source: E. coli BL21(DE3), co-expressed with MBP fusions; in lysate (amylose pull-down) or co-purified; not shown: His, N-terminal, kept

Reference: publication PMC7614228, “Structural maturation of SYCP1-mediated meiotic chromosome synapsis by SYCE3” (Nature structural & molecular biology, 2023)
